Experimental data: publication PMC2684557
Results are given in words; binding and its absence hold for the method and conditions named. In cells and extracts the contact can be indirect. Some results given as binding are weak or reduced against the parent protein; the word gives no strength.

By UniProt entry, the sequences of proteins in these tests, tags left out. Residues count along the entry.
UniProt O43181, residues 43-175: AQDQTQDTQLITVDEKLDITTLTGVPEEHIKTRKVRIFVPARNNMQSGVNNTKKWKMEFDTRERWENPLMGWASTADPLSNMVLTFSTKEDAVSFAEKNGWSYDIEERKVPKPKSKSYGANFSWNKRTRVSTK
UniProt P31040, residues 43-664: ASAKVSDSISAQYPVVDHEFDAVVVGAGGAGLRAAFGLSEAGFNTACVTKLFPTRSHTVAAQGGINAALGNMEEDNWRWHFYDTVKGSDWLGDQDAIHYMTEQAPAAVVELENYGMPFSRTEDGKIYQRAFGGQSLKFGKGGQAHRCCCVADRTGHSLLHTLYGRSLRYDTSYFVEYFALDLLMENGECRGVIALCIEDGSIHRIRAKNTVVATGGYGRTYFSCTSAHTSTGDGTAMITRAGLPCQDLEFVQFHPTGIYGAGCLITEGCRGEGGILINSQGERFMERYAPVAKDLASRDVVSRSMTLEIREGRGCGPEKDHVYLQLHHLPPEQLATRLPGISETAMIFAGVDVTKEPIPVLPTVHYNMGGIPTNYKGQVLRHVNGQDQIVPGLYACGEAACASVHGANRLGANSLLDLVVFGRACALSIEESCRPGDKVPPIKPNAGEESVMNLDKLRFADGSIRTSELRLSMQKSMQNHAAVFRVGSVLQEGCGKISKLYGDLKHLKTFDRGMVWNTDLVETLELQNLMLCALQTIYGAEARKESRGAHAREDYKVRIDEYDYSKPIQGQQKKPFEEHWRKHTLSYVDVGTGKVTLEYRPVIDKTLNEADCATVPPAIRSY
UniProt P99999: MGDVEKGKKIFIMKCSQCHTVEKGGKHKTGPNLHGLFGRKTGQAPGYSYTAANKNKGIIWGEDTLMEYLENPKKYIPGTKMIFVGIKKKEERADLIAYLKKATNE

What follows are substances tested against T1, methionine sulfoxide reductase A (MsrA), human lens epithelial cell mitochondria (human (endogenous in HLE B3)) (UniProt Q9UJ68) (assay: co-IP; HLE B3 mitochondrial protein (500 ug) incubated overnight at 4 C with MsrA antibody conjugated to NHS activated beads; washed 4X with PBS 1 mM n-dodecyl-beta-D-maltopyranoside; eluted with 0.2 M glycine pH 2.5; blots probed with antibodies to subunits of complexes I-V or to cyt c).
T1 sequence: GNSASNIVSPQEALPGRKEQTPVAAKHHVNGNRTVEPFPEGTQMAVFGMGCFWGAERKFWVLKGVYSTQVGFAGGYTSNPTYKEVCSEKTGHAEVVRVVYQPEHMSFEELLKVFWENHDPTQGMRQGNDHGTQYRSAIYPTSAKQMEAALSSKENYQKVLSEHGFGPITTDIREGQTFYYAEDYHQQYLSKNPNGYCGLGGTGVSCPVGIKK

binding, binds:
NDUFS4 (18 kDa), subunit of mitochondrial complex I, human (from UniProt O43181 43-175)
complex II 70 kDa subunit, human (from UniProt P31040 43-664)
complex V ATP synthase subunit beta (56 kDa), human (from UniProt P06576 48-529)
cytochrome c, human lens epithelial cell mitochondria (from UniProt P99999 1-105)
